“Also recorded” adds a separate entry of the source. For at least one compound, name, drawing or mass did not settle the structure.
Legend:
OMA1 = assay: OPA1-Western blot of Hek293T cells incubated with tipranavir, OMA1 activated with CCCP or sorafenib; assay type: cell-based, human; conditions: for OPA1 cleavage in the absence of CCCP: no CCCP; for CCCP-induced OPA1 cleavage: then 3 μM CCCP 30 minutes; for sorafenib-induced OPA1 cleavage: then 30 μM sorafenib 30 minutes
Method: FIG. 28. […] OMA1 was activated with 3 μM CCCP for 30 minutes.
FIG. 29. Tipranavir can activate OMA1 at concentrations above 20 μM. […] OMA1 was then activated with 4 μM CCCP for 30 minutes in the indicated samples.
FIG. 30. […] OMA1 was then activated with either 3 μM CCCP or 30 μM sorafenib (SFB) for 30 minutes in the indicated samples.
Experimentally, OMA1 can be activated in cellular assays by the mitochondrial uncoupler [(3-chlorophenyl)hydrazono]propanedinitrile (CCCP).
Example 9. Tipranavir can activate OMA1 at concentrations above 20 μM. To further determine tipranavir's effect on OPA1, I incubated Hek293T cells for an hour with low doses of 0 μM, 20 μM and 40 μM tipranavir (FIG. 29).
Example 10. 100 μM tipranavir can inhibit OPA1 cleavage upon CCCP-treatment and upon sorafenib treatment. […] To investigate whether 100 μM tipranavir can inhibit CCCP-induced OPA1-cleavage or OPA1-cleavage induced by other agents as well, I incubated Hek293T cells for an hour with low doses of 0 μM, 50 μM or 100 μM tipranavir before activating OMA1 with either 3 μM CCCP or 30 μM sorafenib (see FIG. 30).

OMA1 protein = molecular target: T1, OMA1 protein (Homo sapiens, UniProt Q96E52); assay: OMA1-Western blot of Hek293T cells incubated with tipranavir; assay type: cell-based; conditions: 100 μM compared to 50 μM tipranavir, 1 hour
T1 construct: I incubated Hek293T cells for an hour with either 50 μM or 100 tipranavir; endogenous in cells; host or cells: Hek293T
T1 sequence (Q96E52 144-524): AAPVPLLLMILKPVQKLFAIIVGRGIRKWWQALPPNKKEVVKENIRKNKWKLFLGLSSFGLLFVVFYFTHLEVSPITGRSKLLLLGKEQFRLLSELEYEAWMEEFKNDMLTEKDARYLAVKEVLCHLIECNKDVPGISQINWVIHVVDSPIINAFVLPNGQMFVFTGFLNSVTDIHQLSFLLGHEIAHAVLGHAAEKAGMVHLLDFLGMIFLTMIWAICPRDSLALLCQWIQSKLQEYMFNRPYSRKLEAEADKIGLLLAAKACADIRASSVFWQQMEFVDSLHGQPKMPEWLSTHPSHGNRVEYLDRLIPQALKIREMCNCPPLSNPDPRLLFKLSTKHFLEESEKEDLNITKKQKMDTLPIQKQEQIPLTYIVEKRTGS

[1] = 100 μM tipranavir 1 hour, listed as Tipranavir

CCC[C@@]1(CCc2ccccc2)CC(O)=C([C@H](CC)c2cccc(NS(=O)(=O)c3ccc(C(F)(F)F)cn3)c2)C(=O)O1 [tipranavir]
OPA1 cleavage in the absence of CCCP (OMA1; 40 μM tipranavir 1 hour): OPA1 cleavage at 40 μM tipranavir without any CCCP | OPA1 cleavage in the absence of CCCP (OMA1; 50 μM tipranavir 1 hour): resulted in OPA1 processing even in the absence of CCCP; also recorded: OPA1 hydrolyzis at about 50 μM tipranavir irrespective of the presence or absence of CCCP or sorafenib | CCCP-induced OPA1 cleavage (OMA1; 50 μM tipranavir 1 hour): did not only not prevent OPA1 processing upon CCCP-treatment; also recorded: OPA1 hydrolyzis at about 50 μM tipranavir irrespective of the presence or absence of CCCP or sorafenib | CCCP-induced OPA1 cleavage (OMA1; 100 μM tipranavir 1 hour): appears to also inhibit OMA1 protease; also recorded: inhibit the enzyme's activity and prevent OPA1 cleavage even in the presence of CCCP; also recorded: prevented CCCP-induced OPA1 cleavage; also recorded: did not hydrolyze the large isoforms of the OPA1 protein | CCCP-induced OPA1 cleavage (OMA1; [1]): prevented this CCCP-dependent L-OPA1 hydrolysis; also recorded: can prevent CCCP-induced OPA1 cleavage | sorafenib-induced OPA1 cleavage (OMA1; 100 μM tipranavir 1 hour): prevented CCCP-induced OPA1 cleavage and sorafenib-induced OPA1 cleavage | sorafenib-induced OPA1 cleavage (OMA1; [1]): can prevent CCCP-induced OPA1 cleavage and sorafenib-induced OPA1 cleavage | CCCP-induced OPA1 cleavage (OMA1; 200 μM tipranavir 1 hour): prevent OPA1 processing upon CCCP-treatment, which I observed at concentrations of 100 μM and 200 μM | OMA1 protein level (OMA1 protein): OMA1 protein was reduced | OMA1 protein level (OMA1 protein; listed as Tipranavir): can reduce OMA1 protein levels

— US11993590B2, “Pyranone compounds useful to modulate OMA1 protease” (712 North Inc., priority 2016, dated 2024)
